Assay results as given in the supplement of paper PMC6411743.
± gives the standard deviation of the averaged measurements. Only a part is listed here, and it is no random draw. Most values lie at the level of the controls, where differences are scatter.

Sequences of proteins named here, by UniProt entry; tags and fusion partners are left off. A change or cut given only in a name is not applied to a line headed by its entry.
UniProt Q16181: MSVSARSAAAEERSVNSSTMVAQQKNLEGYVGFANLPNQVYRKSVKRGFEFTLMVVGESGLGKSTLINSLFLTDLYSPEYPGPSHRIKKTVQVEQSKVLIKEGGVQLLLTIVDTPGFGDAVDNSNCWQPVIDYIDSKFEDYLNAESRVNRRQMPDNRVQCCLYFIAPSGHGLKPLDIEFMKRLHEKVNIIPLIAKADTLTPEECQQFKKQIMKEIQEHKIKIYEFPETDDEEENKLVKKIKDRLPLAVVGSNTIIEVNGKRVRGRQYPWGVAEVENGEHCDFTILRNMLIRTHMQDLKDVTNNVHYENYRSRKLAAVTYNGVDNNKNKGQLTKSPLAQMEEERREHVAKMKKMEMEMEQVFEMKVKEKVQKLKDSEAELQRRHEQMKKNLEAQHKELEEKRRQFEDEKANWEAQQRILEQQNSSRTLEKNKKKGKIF
UniProt Q499Z4: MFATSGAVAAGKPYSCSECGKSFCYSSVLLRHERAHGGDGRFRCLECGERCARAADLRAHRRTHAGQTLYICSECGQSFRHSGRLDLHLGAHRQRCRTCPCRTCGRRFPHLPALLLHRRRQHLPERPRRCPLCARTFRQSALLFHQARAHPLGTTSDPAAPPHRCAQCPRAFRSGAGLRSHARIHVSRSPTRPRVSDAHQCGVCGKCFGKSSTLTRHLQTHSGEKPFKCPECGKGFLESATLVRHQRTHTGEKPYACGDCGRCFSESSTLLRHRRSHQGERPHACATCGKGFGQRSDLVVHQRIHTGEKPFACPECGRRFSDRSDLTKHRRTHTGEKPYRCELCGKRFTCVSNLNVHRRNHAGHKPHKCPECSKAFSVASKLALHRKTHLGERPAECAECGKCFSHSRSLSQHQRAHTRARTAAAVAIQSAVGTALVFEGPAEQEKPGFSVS
UniProt Q14683: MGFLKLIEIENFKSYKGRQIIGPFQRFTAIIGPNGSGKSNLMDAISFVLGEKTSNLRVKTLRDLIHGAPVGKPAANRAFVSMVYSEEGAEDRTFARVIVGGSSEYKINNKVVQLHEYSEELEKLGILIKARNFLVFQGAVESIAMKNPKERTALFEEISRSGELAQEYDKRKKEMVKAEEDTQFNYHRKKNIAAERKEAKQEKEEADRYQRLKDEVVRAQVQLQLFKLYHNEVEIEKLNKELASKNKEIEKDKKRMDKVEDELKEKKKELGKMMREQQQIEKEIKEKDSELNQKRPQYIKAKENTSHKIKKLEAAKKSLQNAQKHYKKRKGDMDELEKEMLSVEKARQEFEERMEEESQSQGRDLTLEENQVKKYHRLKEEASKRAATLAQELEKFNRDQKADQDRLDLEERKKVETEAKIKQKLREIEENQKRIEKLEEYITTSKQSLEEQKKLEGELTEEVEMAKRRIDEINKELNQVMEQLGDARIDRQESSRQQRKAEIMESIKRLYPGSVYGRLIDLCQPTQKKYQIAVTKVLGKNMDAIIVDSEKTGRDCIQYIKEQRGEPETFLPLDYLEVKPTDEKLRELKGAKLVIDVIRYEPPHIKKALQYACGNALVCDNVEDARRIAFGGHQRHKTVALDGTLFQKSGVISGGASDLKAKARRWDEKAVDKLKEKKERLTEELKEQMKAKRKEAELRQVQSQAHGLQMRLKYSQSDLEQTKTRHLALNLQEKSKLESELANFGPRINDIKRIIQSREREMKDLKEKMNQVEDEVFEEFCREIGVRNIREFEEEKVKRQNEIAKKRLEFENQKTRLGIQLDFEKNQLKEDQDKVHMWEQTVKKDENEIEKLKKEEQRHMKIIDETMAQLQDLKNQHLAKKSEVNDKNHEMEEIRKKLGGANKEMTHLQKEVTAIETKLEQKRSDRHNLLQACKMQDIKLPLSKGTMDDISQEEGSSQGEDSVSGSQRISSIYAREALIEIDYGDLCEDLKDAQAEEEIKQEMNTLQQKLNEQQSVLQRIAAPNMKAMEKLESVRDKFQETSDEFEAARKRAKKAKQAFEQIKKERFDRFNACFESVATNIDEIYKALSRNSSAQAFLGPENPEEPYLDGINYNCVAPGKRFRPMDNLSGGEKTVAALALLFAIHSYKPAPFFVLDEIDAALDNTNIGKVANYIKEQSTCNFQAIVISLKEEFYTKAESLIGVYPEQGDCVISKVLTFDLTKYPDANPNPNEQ
UniProt Q15388, whole entry: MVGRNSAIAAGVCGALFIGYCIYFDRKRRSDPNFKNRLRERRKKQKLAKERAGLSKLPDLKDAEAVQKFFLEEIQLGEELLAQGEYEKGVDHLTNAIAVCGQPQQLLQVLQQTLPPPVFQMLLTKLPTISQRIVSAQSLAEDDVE
UniProt Q14498: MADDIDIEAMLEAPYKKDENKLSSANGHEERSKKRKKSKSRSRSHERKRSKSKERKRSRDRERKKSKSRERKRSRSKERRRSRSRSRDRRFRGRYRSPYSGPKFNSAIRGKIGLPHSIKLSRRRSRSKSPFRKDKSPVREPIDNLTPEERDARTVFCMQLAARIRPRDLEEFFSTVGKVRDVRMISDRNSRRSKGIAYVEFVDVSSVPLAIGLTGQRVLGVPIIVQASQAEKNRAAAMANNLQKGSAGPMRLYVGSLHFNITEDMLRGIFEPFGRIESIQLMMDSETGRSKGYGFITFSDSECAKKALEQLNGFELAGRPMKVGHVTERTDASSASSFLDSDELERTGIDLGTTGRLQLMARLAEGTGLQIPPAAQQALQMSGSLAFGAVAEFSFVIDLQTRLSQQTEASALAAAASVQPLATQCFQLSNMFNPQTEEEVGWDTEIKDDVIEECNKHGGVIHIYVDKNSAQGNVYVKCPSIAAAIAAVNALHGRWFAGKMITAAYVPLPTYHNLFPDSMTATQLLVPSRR
UniProt Q16512: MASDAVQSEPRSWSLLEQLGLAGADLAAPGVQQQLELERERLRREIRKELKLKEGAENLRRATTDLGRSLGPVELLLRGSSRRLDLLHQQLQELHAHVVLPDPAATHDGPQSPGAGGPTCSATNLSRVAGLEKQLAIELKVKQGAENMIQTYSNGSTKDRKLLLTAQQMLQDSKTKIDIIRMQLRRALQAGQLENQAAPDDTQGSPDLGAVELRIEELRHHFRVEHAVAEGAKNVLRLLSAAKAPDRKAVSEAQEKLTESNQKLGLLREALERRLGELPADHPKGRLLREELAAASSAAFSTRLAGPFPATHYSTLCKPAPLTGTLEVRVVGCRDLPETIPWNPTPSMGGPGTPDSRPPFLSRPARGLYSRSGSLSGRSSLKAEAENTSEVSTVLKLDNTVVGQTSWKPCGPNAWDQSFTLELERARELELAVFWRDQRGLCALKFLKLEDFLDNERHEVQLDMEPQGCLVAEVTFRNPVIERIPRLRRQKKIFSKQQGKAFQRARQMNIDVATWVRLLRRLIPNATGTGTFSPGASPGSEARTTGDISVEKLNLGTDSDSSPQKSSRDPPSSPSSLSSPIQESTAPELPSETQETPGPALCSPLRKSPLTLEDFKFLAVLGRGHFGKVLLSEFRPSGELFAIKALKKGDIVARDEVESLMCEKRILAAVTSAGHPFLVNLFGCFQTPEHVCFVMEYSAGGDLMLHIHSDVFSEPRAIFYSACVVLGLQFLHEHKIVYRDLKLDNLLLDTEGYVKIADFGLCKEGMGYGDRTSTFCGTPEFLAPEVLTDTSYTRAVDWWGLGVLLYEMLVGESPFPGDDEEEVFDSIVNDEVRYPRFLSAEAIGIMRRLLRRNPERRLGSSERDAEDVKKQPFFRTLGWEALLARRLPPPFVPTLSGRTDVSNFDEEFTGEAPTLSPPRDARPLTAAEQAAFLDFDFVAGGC
UniProt Q4G0J3: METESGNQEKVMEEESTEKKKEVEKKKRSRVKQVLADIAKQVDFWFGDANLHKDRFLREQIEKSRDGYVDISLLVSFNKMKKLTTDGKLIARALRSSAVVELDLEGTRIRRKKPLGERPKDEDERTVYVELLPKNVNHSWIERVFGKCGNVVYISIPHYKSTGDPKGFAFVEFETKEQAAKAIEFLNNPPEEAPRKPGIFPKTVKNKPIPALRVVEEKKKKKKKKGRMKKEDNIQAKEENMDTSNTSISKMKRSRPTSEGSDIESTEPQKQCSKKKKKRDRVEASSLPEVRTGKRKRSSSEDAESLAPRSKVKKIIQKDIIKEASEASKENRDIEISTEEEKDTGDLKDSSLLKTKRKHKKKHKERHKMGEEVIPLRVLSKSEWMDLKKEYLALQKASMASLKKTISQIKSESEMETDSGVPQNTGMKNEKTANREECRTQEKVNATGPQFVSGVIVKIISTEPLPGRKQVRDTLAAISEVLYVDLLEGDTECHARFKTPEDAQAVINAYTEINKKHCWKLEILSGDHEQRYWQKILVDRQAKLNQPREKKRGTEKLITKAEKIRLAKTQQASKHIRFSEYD
UniProt Q14657: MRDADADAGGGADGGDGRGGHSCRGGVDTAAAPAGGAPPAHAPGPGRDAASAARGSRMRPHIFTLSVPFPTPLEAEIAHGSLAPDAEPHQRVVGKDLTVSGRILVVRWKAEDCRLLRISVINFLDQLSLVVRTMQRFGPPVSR
UniProt Q16630, whole entry: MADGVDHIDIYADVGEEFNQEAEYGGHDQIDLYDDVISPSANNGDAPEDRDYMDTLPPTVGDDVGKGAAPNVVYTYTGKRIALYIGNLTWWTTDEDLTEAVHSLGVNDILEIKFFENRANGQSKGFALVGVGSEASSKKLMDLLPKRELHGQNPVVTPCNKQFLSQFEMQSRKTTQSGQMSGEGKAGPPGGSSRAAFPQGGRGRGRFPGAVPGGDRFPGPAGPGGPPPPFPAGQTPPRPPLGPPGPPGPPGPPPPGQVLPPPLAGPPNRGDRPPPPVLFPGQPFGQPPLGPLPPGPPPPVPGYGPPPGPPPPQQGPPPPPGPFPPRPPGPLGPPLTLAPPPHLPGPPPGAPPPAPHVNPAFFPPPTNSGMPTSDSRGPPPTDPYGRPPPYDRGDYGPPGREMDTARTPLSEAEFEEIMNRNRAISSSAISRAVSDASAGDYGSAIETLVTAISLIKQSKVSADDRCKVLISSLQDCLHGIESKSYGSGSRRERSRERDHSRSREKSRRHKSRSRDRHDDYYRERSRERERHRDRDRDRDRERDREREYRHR
UniProt Q14677: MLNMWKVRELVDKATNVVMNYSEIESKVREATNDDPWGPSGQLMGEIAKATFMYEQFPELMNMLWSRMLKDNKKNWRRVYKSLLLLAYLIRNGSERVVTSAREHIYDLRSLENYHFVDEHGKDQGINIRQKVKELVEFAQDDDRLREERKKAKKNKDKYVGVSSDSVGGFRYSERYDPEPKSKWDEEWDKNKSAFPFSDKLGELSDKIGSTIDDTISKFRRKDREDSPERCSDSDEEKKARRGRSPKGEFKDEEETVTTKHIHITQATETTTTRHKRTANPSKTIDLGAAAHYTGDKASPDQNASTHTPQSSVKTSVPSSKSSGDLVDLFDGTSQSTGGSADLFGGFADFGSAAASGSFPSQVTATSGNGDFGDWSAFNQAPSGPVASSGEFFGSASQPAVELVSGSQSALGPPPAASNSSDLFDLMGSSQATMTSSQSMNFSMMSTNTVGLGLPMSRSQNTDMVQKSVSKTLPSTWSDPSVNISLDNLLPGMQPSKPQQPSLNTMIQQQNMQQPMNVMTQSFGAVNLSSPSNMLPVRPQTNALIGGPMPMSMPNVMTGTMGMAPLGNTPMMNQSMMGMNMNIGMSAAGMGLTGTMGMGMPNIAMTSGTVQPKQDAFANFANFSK
UniProt Q14534: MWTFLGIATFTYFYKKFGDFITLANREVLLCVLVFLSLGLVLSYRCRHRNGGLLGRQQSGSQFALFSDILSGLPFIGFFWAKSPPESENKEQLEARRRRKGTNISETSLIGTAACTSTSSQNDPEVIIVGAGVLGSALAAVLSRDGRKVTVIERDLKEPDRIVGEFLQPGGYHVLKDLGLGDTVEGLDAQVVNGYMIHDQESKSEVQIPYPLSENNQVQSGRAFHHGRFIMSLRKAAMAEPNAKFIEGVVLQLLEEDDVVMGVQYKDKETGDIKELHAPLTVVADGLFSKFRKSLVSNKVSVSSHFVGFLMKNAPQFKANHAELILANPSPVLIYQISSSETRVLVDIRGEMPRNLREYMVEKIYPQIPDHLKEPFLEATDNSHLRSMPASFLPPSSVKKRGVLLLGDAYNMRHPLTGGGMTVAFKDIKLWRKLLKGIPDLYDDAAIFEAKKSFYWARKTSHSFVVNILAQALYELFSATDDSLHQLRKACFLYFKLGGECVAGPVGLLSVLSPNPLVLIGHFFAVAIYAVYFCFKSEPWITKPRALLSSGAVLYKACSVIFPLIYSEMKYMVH
UniProt Q15906, whole entry: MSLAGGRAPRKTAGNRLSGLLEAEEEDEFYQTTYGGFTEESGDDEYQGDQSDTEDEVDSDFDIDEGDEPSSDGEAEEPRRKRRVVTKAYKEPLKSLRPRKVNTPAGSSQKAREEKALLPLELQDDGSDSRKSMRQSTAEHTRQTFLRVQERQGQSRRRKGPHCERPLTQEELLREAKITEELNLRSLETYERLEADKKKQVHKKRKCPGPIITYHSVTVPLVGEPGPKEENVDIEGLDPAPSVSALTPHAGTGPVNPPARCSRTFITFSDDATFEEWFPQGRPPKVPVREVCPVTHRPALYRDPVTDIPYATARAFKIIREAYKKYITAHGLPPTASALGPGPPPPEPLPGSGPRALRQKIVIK

Compound: Nc1ncnc2c1ncn2[C@@H]1O[C@H](COP(=O)(O)OP(=O)(O)OP(=O)(O)O)[C@@H](O)[C@H]1O [adenosine triphosphate]
Test: NP40-soluble protein abundance relative to vehicle (solubility fold change) (ratio); higher = more soluble protein in presence of ATP
How it was run: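 Jurkat crude lysate prepared with a Dounce homogeniser was treated at eight concentrations spanning 0.1 to 10 mM, 10 min at room temperature then 3 min at 37 °C. Solubilisation with 0.8% NP40 and benzonase and ultracentrifugation preceded TMT labelling of the supernatant for LC-MS/MS. Fold change against the detergent-processed vehicle was determined per replicate from vsn-normalised intensities, across three independent experiments.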

Row | Target | NP40-soluble protein abundance (concentration: 0.1mM) | NP40-soluble protein abundance (concentration: 0.5mM) | NP40-soluble protein abundance (concentration: 1mM) | NP40-soluble protein abundance (concentration: 2mM) | NP40-soluble protein abundance (concentration: 4mM) | NP40-soluble protein abundance (concentration: 6mM) | NP40-soluble protein abundance (concentration: 8mM) | NP40-soluble protein abundance (concentration: 10mM)
1 | SF3B3 (UniProt Q15393) | 1.05 ± 0.027 | 1.09 ± 0.024 | 1.12 ± 0.072 | 1.11 ± 0.052 | 1.15 ± 0.072 | 1.1 ± 0.032 | 1.188 ± 0.0092 | 1.19 ± 0.037
2 | UniProt Q14934 and related entries | 0.955 ± 0.15 | 0.963 ± 0.12 |  |  |  |  |  | 
3 | UniProt Q16181 and related entries | 1.01 ± 0.057 | 1.02 ± 0.095 | 0.891 ± 0.15 | 0.979 ± 0.023 | 0.9086 ± 0.0056 | 0.963 ± 0.076 | 0.957 ± 0.026 | 0.911 ± 0.046
4 | ZNF672 (UniProt Q499Z4) | 0.985 ± 0.06 | 1.12 ± 0.17 | 0.994 ± 0.061 | 1.07 ± 0.0039 | 1 ± 0.089 | 0.93 ± 0.078 | 0.996 ± 0.047 | 0.995 ± 0.016
5 | SMC1A (UniProt Q14683) | 1.01 ± 0.023 | 1.03 ± 0.055 |  |  |  |  |  | 
6 | RABEP1 (UniProt Q15276) | 0.958 ± 0.019 | 0.985 ± 0.047 | 0.942 ± 0.049 | 0.944 ± 0.032 | 0.928 ± 0.021 | 0.995 ± 0.054 | 0.895 ± 0.016 | 0.9135 ± 0.0042
7 | TOMM20 (UniProt Q15388) | 0.801 ± 0.18 | 0.82 ± 0.26 | 0.921 ± 0.086 | 0.896 ± 0.044 | 0.903 ± 0.11 | 0.886 ± 0.041 | 0.8947 ± 0.0073 | 0.803 ± 0.21
8 | UniProt Q14498 and related entries | 1.03 ± 0.027 | 1.42 ± 0.11 | 1.59 ± 0.14 | 1.72 ± 0.12 | 1.84 ± 0.12 | 1.93 ± 0.13 | 1.98 ± 0.15 | 2.02 ± 0.2
9 | UniProt Q16512 and related entries | 1.02 ± 0.052 | 1.03 ± 0.045 |  |  |  |  |  | 
10 | UniProt Q14289 and related entries | 1.04 ± 0.036 | 1.06 ± 0.072 | 1.03 ± 0.04 | 1.04 ± 0.042 | 1.02 ± 0.04 | 0.981 ± 0.06 | 1.01 ± 0.04 | 1 ± 0.064
11 | UniProt Q3MHD2 and related entries | 1.01 ± 0.072 | 1.03 ± 0.052 |  |  |  |  |  | 
12 | UBE2V2 (UniProt Q15819) | 0.923 ± 0.029 | 0.925 ± 0.04 | 0.932 ± 0.018 | 0.904 ± 0.027 | 0.9 ± 0.045 | 0.922 ± 0.032 | 0.885 ± 0.035 | 0.853 ± 0.028
13 | UniProt Q2KHT3 and related entries | 1.02 ± 0.0027 | 1.05 ± 0.04 | 1.04 ± 0.045 | 0.967 ± 0.1 | 0.963 ± 0.11 | 0.999 ± 0.093 | 1.04 ± 0.15 | 1.02 ± 0.17
14 | UniProt Q4G0J3 and related entries | 1.04 ± 0.023 | 1.1 ± 0.036 | 1.17 ± 0.046 | 1.22 ± 0.047 | 1.36 ± 0.021 | 1.507 ± 0.0071 | 1.56 ± 0.049 | 1.71 ± 0.018
15 | LAGE3 (UniProt Q14657) | 0.982 ± 0.056 | 0.903 ± 0.044 | 0.907 ± 0.071 | 0.909 ± 0.073 | 0.901 ± 0.029 | 0.881 ± 0.072 | 0.903 ± 0.034 | 0.882 ± 0.011
16 | MDC1 (UniProt Q14676) | 1.075 ± 0.0064 | 1.34 ± 0.028 | 1.45 ± 0.11 | 1.57 ± 0.11 | 1.74 ± 0.13 | 1.89 ± 0.18 | 1.88 ± 0.13 | 1.99 ± 0.15
17 | TYSND1 (UniProt Q2T9J0) | 1.92 ± 0.89 | 1.001 ± 0.0098 | 0.977 ± 0.047 | 0.983 ± 0.058 | 0.995 ± 0.042 | 0.947 ± 0.013 | 0.974 ± 0.032 | 0.96 ± 0.076
18 | UniProt Q16630 and related entries | 1.16 ± 0.075 | 2.02 ± 0.12 | 2.36 ± 0.24 | 2.68 ± 0.27 | 2.89 ± 0.3 | 3.09 ± 0.32 | 3.03 ± 0.2 | 3.05 ± 0.28
19 | UniProt Q14677 and related entries | 1.01 ± 0.029 | 1.04 ± 0.04 | 1.04 ± 0.042 | 1.05 ± 0.02 | 1.04 ± 0.028 | 1.11 ± 0.027 | 1.07 ± 0.033 | 1.09 ± 0.055
20 | ERCC6L (UniProt Q2NKX8) | 1.02 ± 0.05 | 1.03 ± 0.044 | 0.999 ± 0.024 | 0.986 ± 0.026 | 0.971 ± 0.024 | 0.999 ± 0.033 | 0.966 ± 0.0079 | 0.978 ± 0.017
21 | UniProt Q14534 and related entries | 1.04 ± 0.074 | 1.05 ± 0.014 |  |  |  |  |  | 
22 | EFTUD2 (UniProt Q15029) | 1.01 ± 0.041 | 1.06 ± 0.069 | 1.12 ± 0.04 | 1.16 ± 0.047 | 1.21 ± 0.047 | 1.26 ± 0.075 | 1.41 ± 0.056 | 1.42 ± 0.12
23 | UniProt Q15906 and related entries | 1.03 ± 0.053 | 1.1 ± 0.047 | 1.13 ± 0.12 | 1.13 ± 0.092 | 1.22 ± 0.12 | 1.27 ± 0.23 | 1.24 ± 0.12 | 1.26 ± 0.13

Looked up above.
For NP40-soluble protein abundance (concentration: 6mM), UBE2V2 (UniProt Q15819) has the entry 0.922 ± 0.032
For NP40-soluble protein abundance (concentration: 0.5mM), UniProt Q14934 and related entries has the entry 0.963 ± 0.12
